In the data set the test system is diabetic rats. Description: Fasting blood glucose monitoring in STZ-diabetic rats with dorsal skin wound, topical administration. In kind it is in vivo, Wistar rats. The conditions noted are these: mean±S.E.M. How it is done:
In this study, 50 STZ-diabetic rats were used to simulate Type 1 diabetes, with an additional 8 normal rats serving as the control group (normal blank gel control group (without STZ)). The method for modeling the STZ-diabetic rat is as follows: Male Wistar rats were weighed and then intraperitoneally injected with Streptozotocin (STZ, freshly prepared, dissolved in 0.1 M citrate buffer (pH 4.5)) at a dosage of 80 mg/kg. STZ was intraperitoneally injected twice in total, with a 5-day interval between injections. Three days after the second STZ injection, rats with fasting blood glucose levels greater than 250 mg/dl were defined as diabetic model rats. Studies on skin wound healing could be conducted from 1 to 8 weeks after the successful establishment of the diabetic rat model. • 2.
All experimental groups were topically administered. Before administering the medication, wounds were rinsed with physiological saline and any residual moisture was absorbed with a sterile cotton swab. Then, the medication was applied. For the GeneTime group, the solution was evenly applied to the wound and surrounding skin, with the dressing changed twice a day. For the other groups, the gel samples were applied from the periphery toward the center, focusing first on the edges of the lesion before covering inward, with the dressing changed twice a day. Medication was applied immediately after the wound model was created, and each group was continuously administered for 18 days. For specific administration information, see Table 2. • 5. Efficacy assessment • 1) Blood glucose monitoring: Blood samples were obtained from all animals via tail vein sampling, and fasting blood glucose levels were measured on days 0/9/18 using a glucometer. • 2) Evaluation of wound closure:
Experimental data were expressed as the mean±standard error of the mean (mean±S.E.M.). Statistical analyses were conducted using appropriate methods in software such as Graphpad Prism or SPSS. A p-value of less than 0.05 is considered to indicate a significant difference. • 7. Results • 1) Fasting blood glucose

Molecules are shown by their SMILES.

Consider `CC1(c2ccc(=O)n(-c3ccsc3)c2)COC1` [compound I], for which the Fasting blood glucose runs as follows: (0.3% compound I gel, 50 mg topical twice daily, Day 0 (baseline)) 431.64 ± 20.81 mg/dL; (0.3% compound I gel, 50 mg topical twice daily, Day 9) 449.64 ± 7.22 mg/dL; (0.3% compound I gel, 50 mg topical twice daily, Day 18) 433.62 ± 5.81 mg/dL; (1% compound I gel, topical twice daily, Day 0 (baseline)) 432.9 ± 9.21 mg/dL; (1% compound I gel, topical twice daily, Day 9) 447.3 ± 10.77 mg/dL; (1% compound I gel, topical twice daily, Day 18) 474.3 ± 7.32 mg/dL. In addition, the Fasting blood glucose is, setting by setting: (3% compound I gel, topical twice daily, Day 0 (baseline)) 418.86 ± 12.33 mg/dL; (3% compound I gel, topical twice daily, Day 9) 428.22 ± 13.68 mg/dL; (3% compound I gel, topical twice daily, Day 18) 465.66 ± 12.26 mg/dL.

(Values after patent publication US20240238263A1, “USE OF PYRIDONE DERIVATIVE CONTAINING HETEROATOM CYCLOBUTANE SUBSTITUENT” (GUANGZHOU JOYO PHARMATECH CO., LTD, priority 2021, published 2024).)
